Measured values: patent US20040028675A1, “Compositions for the treatment of lupus” (Zarlink Semiconductor AB, priority 2001, published 2004)
At least one compound was matched to its structure with a doubt left.

Tested on: patients with Lupus (Systemic Lupus Erythematosus)
Assay: Treatment of patients with Lupus (SLE) with the inventive composition
Conditions: limited tests

C[C@@H]1O[C@@H](OC[C@H]2O[C@@H](Oc3c(-c4ccc(O)c(O)c4)oc4cc(O)cc(O)c4c3=O)[C@H](O)[C@@H](O)[C@@H]2O)[C@H](O)[C@H](O)[C@H]1O [Rutin]
effectiveness of the bioflavonoid in the inventive formula (in place of Quercetin): effective
effectiveness of the bioflavonoid in the inventive formula (in place of Quercetin) (listed as rutin): moderately effective
